Measurements taken from the supplement of paper PMC12889115.
The list shows a part of the results. Values are raw readings; no control value is given beside them.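 Primary screen: polymyxin B was added at a level permeabilizing Salmonella outer membranes while sparing inner membranes. DMSO wells, both with and without polymyxin B, established maximum growth. Plate-to-plate variation meant each plate was ranked on its own, and the lowest-OD600 compounds were selected as hits.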

Test system: Salmonella enterica serovar Typhimurium SL1344
Test: bacterial growth OD600 after 18 h with compound and polymyxin B; higher = more bacterial growth (less inhibition)
Conditions: 50 µM, Mueller-Hinton broth

| Compound | bacterial growth OD600 (polymyxin B 0.75 µg/mL) | bacterial growth OD600 (polymyxin B 1 µg/mL) |
| --- | --- | --- |
| C=CCN(CC=C)C(=O)c1csc2nc(-c3ccccc3Cl)cn12 | 0.478 | – |
| CC(C)(O)C#Cc1ccc(CN2CC[C@@H](N3CCN(c4ccccn4)CC3)[C@H](O)C2)cc1 | 0.831 | – |
| CCOC(=O)C1(CCOc2ccccc2)CCN(Cc2ccc(C)o2)CC1 | – | 0.779 |
| Cc1cccc(C(=O)N2CCCC(C(=O)c3cccc4ccccc34)C2)c1 (stereo not given) | – | 0.002 |
| Cc1nnc(CN(C)C(=O)c2csc3nc(-c4cccc(F)c4)cn23)o1 | – | 1.13 |
| COc1ccc(NC(=O)CCC2CCCN(S(=O)(=O)N(C)C)C2)c(C)c1 (stereo not given) | – | 1.2 |
| O=C(Cn1cc(NC(=O)CCOc2ccccc2)cn1)NCCCn1ncc2ccccc21 | 0.902 | – |
| CCOC(=O)C1(CCOC)CCCN(C/C=C/c2ccc(OC)cc2)C1 (stereo not given) | – | 1.02 |
| C=CCNC(=O)N1CCC2(CCCN(Cc3cc(OC)ccc3F)C2=O)C1 (stereo not given) | 0.813 | – |
| O=C1CCCN1CCCC(=O)N1CCCC(CCc2ccccc2F)C1 (stereo not given) | 0.801 | – |
| O=C(CCc1cn2ccccc2n1)NC1CCCN(CC2CCCCC2)C1 (stereo not given) | – | 1.21 |
| O=C(CC(c1ccccc1)c1cccc(Cl)c1)NCCc1cnccn1 (stereo not given) | – | 0.798 |
| COc1ccc(C(=O)NCCCn2cccn2)cc1OC1CCN(C(C)=O)CC1 | – | 0.795 |
| CN(CC1Cc2ccccc2O1)C(=O)CCC1(Cc2ccccc2)CCC(=O)N1 (stereo not given) | 0.887 | – |
| COc1ccc(C(=O)NCc2ccc(F)cc2)cc1OC1CCN(C(C)C)CC1 | – | 0.948 |
| COc1ccc(OC)c(CN2CCN(C3CCCCC3)C(CCO)C2)c1 (stereo not given) | – | 0.948 |
| CCOC(=O)CNC(=O)N1CCC(CCC(=O)N(C)Cc2ccccc2)CC1 | – | 0.961 |
| O=C(Nc1ccnn1C1CCN(C(=O)Cn2cccn2)CC1)C1CCCC1 | – | 1.02 |
| O=C(Nc1ccnn1C1CCN(Cc2cc3ccccc3s2)CC1)C1CC1 | – | 0.766 |
| CCOc1ccc(CN2CCN(Cc3ccc(OC)c(C)c3C)C(CCO)C2)cc1CO (stereo not given) | – | 1.02 |
| CCOc1cccc(CN2CCOc3ccc(CN4CCC(O)(c5cccnc5)CC4)cc3C2)c1 | 1.03 | – |
| COc1ccc(OC2CCN(C3CCCC3)CC2)c(C(=O)NCCc2cn[nH]c2)c1 | – | 0.915 |
| COc1ccc(-c2nc(CN(Cc3ccccc3)C[C@@H]3CCC(=O)N3)c(C)o2)c(OC)c1C | – | 0.074 |
| CC(=O)NCc1cccnc1N1CCCCCCC1 | – | 0.998 |
| CC(=O)N1CCN(c2ncccc2CNCc2ccc(-c3ccccc3)cc2)CC1 | 0.707 | – |
| CCN(Cc1ccccc1)c1nc(CNC(=O)Cn2nc(C)c3ccccc3c2=O)nc2ccccc12 | 0.031 | – |
| CC(=O)N1CCC(N2CCC(Oc3ccc(C(=O)NC4CCCC4)cc3Cl)CC2)CC1 | – | 0.939 |
| CC(=O)N1CCN(C(=O)CC(c2ccccc2)c2ccc(Cl)cc2)CC1 (stereo not given) | – | 0.943 |
| O=C1CCN(c2ccccc2C(=O)N2CCC3(CC2)CC3C(=O)NCc2cccs2)C(=O)N1 (stereo not given) | 0.808 | – |
| CSc1ccccc1N1C(=O)CN(C(=O)C2CCCC2)CC1C (stereo not given) | 0.936 | – |

Entries from the list above that have a thiophene ring, fused or not:

| Compound | bacterial growth OD600 (polymyxin B 0.75 µg/mL) | bacterial growth OD600 (polymyxin B 1 µg/mL) |
| --- | --- | --- |
| O=C(Nc1ccnn1C1CCN(Cc2cc3ccccc3s2)CC1)C1CC1 | – | 0.766 |
| O=C1CCN(c2ccccc2C(=O)N2CCC3(CC2)CC3C(=O)NCc2cccs2)C(=O)N1 (stereo not given) | 0.808 | – |
